# Assay results reported in paper PMC8158957.
# Chains of the proteins cited; added tags and fusions are not shown. Residues count along the entry.
# UniProt P41916, residues 36-221: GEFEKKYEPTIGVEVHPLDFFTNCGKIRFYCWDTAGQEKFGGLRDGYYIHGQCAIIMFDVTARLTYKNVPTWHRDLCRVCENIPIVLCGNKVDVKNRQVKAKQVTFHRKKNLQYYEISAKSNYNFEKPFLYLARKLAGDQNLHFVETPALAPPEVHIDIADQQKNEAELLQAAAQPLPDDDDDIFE
# Results are given in words; binding and its absence hold for the method and conditions named. Binding calls can cover weak binding; strength is not graded here.
# Biological target: full-length tomato DEM1, yeast two-hybrid bait (tomato) (UniProt O04394)
# Experiment: two-hybrid; pairwise test of the longest RAN1 prey against DEM baits; growth on quadruple dropout media (QDO), -W-L to select bait and prey vectors
substance,measurement,value
"Arabidopsis RAS-RELATED NUCLEAR PROTEIN 1 (RAN1), longest two-hybrid prey clone (C-terminal 186 amino acids) (from UniProt P41916 36-221) (domain or fragment)",binding,binds
